Test [1] addresses 6SEN 33-Mer peptide BSA-conjugated (wheat) (UniProt P02769). As to the kind of experiment: Western blot, 2 µg loaded, non-reducing (N) and reducing (R) buffer, primary Ab 0.5 µg/ml, IRDye 800CW goat anti mouse IgG 0.1 µg/ml [blot 14G11 Ab].
Test [2] shares this target. The experiment in a line: ELISA / Western blot, antigen coated at 10 µg/ml (Table 3).
For test [3] the target is unchanged. As to the kind of experiment: Western blot, 2 µg loaded, non-reducing (N) and reducing (R) buffer, primary Ab 0.5 µg/ml, IRDye 800CW goat anti mouse IgG 0.1 µg/ml [blot 13F6 Ab].

Sequences of proteins named here, by UniProt entry; tags and fusion partners are left off. A change or cut given only in a name is not applied to a line headed by its entry.
UniProt P02769: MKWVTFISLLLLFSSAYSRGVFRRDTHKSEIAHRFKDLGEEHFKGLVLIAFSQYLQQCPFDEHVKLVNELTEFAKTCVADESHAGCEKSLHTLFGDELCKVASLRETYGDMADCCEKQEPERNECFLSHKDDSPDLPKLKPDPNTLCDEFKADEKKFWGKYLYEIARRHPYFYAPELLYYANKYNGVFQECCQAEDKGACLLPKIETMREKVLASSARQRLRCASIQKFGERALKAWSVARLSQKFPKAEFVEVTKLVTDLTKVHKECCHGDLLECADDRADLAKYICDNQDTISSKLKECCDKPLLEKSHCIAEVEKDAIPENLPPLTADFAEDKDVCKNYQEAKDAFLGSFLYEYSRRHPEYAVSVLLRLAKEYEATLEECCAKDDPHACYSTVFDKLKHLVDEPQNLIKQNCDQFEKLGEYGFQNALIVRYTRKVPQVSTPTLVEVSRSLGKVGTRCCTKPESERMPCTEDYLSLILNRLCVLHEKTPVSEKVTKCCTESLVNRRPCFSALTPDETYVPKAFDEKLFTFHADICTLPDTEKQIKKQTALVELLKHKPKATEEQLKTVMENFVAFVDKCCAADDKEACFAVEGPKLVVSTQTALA

Numbering of substitutions follows the chain as printed. These are yes or no findings as the source states them, for the method shown. Some results given as binding are weak or reduced against the parent protein; the word gives no strength.

B1: 14G11 monoclonal antibody (antibody, IgG1, V domains shown)
VH: QIQLVQSGPEMKKPGETVKIFCKASGYTLTDYSMHWVKQAPGKGLKWMGWINTETGEPTYADDFKGRCAFSLETSVSTAFLQINNLKNEDMGTYFCASSGAWFSYWGQGTLVTVSA
VL: DVLLTQTPLSLPVSLGDQASISCRSSQTIVQINGNTHLEWFLQKPGQSPKLLIYKVSNRFSGVPDRFSGSGSGTDFTLKISRVEAEDLGIYYCFQGSHVPFTFGSGTKLEIK
With B1, the binding entry in test [1] and in test [2] was “binds” each time.

B2: 13F6 monoclonal antibody (antibody, IgG2b, V domains shown)
VH: QIQLVQSGPELKKPGETVKISCKASGYTFTDYSMHWVRQAPGKGLKWMGWINTETGEPTYADDFKGRFAFSLETSASTAYLQINNLKNEDTATHFCAPSVAWFAYWGQGTLVTVST
VL: B1 VL with L4M, P12S, T28S, I32S, I90V
Regarding B2, the binding entry in test [2] and in test [3] was “binds” each time.

These data come from patent US20220135656A1.
